# Data source: PubChem BioAssay AID686937 (Drosophila RNAi Screening Center, 2013)
# Aim: 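Genes in the fly needed for secretion of protein constitutively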 (primary screen)
# System: Drosophila S2 cells expressing secreted horseradish peroxidase
# Reagent: long dsRNA against Drosophila genes
# Timing: about 5.5 days (5 days dsRNA, then 12 h reporter induction)
# Challenge: reporter expression induced after 5 days of dsRNA, read 12 h later; inducer not stated
# Measured: 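After 5 days of dsRNA and 12 h of reporter induction, medium peroxidase read by chemiluminescence and scored as per-plate z-score; higher values mean more reporter released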
# Direction: z-score: higher = more reporter secreted into medium
# The deposit covers about 23,000 reagents; this is an unselected part of those that have a named target and a result. 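Reduced-secretion tags in replicate 1 do not always agree with the z-scores; no criterion for assigning the tags was given.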 The numbers tell different reagents against one gene apart. Names joined by + are all predicted targets of the reagent. The record does not give: the amount of reagent.
"z-score, replicate 1","z-score, replicate 2","phenotype, replicate 1",Gene,reagent no.
0.31,0.17,,CG1943,1
0.24,0.36,,RtcB,1
0,-0.64,,CG31077,1
0.39,0.52,,CG17931 + CG42446,1
0.24,0.13,,CG4293,1
0.34,0.4,,CG3225,1
0.19,0.16,,CG7968,1
0.45,0.23,,CG5348,1
0.37,0.49,,CG17019,1
0.32,0.38,,Eato,1
0.1,0.15,,Eato,2
0.63,0.33,,snama,1
0.64,0.09,,CR31700,1
0,0.33,,CG12016 + Dpm2,1
0.06,0.34,,CG40006,1
0.87,0.18,,CG40006,2
-0.12,0,,CG40006,3
0.25,-0.05,,CG40006,4
0.46,-0.04,,MtnB,1
-2.15,-1.15,reduced secretion,betaTub85D,1
0.21,0.42,,CG7366,1
-0.06,0.24,,CG31321,1
0.72,0.21,,slam,1
0.09,0.47,,tefu,1
0.41,0.27,,CG9171,1
-0.22,-0.46,,CG9171,2
0.46,0.34,,CG34283,1
0.17,0.34,,ND-51L2,1
1,0.55,,nocte,1
0.15,-0.03,,knrl,1
0.2,-0.16,,Zmynd10,1
0.3,-0.99,,Toll-6,1
-0.32,-0.71,,Rcc1,1

2 entries from above in another layout:
{"Gene": "Eato", "reagent no.": 2, "z-score, replicate 1": 0.1, "z-score, replicate 2": 0.15}
{"Gene": "snama", "reagent no.": 1, "z-score, replicate 1": 0.63, "z-score, replicate 2": 0.33}
